Laboratory results published in US11752115B2, “PPAR-alpha agonist treatment of neuropsychiatric disorders” (THE BOARD OF TRUSTEES OF THE UNIVERSITY OF ILLINOIS, priority 2017, dated 2023).
Several values for one entry are separate records, joined by “and”; a condition that tells them apart may be missing. Equal entries are not always repeated. Where two headings read alike, the source gives them in different places.

Tested on: early and late adolescent SI mice
Conditions: for EC50 dose, reduction of aggression: i.p., 60 min before test
[1] = 0.375 mg, reduction of attacks less than 30% vs basal

## CNCC[C@H](Oc1ccc(C(F)(F)F)cc1)c1ccccc1 [S-FLX, S-fluoxetine]
[1]
  “Non-responders” Early SI mice (%): 64.3%
  “Non-responders” Late SI mice (%): 64.3%
0.75 mg
  “Non-responders” Early SI mice (%): 53.3%
  “Non-responders” Late SI mice (%): 23.1%
1.5 mg
  “Non-responders” Early SI mice (%): 22.22% and 22.2%
  “Non-responders” Late SI mice (%): 11.64% and 11.8%
1.5 mg/kg, late vs early SI mice
  potency in late than early SI mice: +316%
Early adolescent SI mice (PND 21)
  EC50 dose, reduction of aggression: > 1.5 mg/kg
Late adolescent SI mice (PND 45)
  EC50 dose, reduction of aggression: 0.85 mg/kg
